# Percent effect of library compounds

Chains of the proteins cited; added tags and fusions are not shown. Residues count along the entry.
UniProt P9WNZ1, whole entry: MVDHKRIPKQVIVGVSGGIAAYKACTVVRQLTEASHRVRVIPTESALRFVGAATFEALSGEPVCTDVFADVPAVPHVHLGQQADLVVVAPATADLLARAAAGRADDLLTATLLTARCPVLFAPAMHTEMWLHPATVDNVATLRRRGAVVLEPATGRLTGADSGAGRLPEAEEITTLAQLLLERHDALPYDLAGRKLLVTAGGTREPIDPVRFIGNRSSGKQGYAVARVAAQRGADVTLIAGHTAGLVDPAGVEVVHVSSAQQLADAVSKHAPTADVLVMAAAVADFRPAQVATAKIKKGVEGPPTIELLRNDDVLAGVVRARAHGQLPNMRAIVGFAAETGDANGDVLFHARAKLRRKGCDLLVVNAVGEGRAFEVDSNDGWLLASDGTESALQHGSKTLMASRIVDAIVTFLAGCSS
UniProt I6X8D2, whole entry: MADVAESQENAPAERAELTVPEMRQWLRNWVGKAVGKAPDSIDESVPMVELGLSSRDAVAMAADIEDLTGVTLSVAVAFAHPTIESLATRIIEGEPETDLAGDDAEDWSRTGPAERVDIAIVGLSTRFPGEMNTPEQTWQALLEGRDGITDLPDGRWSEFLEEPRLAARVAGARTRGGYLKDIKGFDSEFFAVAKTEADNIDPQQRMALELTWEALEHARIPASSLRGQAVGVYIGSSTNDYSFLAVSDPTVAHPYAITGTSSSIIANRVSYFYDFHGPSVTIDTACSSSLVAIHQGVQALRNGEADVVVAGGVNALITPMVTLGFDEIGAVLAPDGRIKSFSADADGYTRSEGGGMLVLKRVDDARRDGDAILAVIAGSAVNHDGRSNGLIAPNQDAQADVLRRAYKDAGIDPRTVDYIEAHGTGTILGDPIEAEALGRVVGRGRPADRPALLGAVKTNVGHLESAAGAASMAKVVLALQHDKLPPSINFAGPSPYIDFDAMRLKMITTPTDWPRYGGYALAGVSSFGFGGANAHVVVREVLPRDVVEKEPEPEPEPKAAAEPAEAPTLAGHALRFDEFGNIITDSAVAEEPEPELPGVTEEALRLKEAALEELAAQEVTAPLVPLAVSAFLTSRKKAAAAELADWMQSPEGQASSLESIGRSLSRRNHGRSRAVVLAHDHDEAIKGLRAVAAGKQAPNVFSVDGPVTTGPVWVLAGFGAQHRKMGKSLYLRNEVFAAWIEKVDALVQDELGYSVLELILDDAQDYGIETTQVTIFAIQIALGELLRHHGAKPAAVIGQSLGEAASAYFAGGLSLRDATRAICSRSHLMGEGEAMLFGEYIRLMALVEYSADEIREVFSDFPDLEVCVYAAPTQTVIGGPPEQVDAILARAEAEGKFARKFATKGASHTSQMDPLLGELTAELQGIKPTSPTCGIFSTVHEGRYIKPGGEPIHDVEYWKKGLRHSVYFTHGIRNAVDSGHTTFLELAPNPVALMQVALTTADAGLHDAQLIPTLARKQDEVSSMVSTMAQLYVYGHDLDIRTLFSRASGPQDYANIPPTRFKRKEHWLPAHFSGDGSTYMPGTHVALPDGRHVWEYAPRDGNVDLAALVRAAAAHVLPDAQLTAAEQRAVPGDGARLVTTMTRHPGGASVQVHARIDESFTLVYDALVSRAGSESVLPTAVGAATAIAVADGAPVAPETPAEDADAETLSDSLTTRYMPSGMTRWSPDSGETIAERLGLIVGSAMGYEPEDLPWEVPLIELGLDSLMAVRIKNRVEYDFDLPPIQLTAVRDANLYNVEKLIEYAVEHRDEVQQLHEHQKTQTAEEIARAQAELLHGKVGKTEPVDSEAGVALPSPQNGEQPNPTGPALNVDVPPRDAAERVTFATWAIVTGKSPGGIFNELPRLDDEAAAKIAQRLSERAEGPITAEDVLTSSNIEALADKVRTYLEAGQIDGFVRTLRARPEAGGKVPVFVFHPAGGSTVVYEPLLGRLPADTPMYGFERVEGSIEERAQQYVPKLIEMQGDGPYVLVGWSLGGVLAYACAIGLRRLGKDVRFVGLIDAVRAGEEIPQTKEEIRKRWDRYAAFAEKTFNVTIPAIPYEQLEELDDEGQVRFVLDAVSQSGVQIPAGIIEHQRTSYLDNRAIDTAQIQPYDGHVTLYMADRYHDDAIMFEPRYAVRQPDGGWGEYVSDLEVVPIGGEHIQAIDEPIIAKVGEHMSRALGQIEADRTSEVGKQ
UniProt P9WPC5, whole entry: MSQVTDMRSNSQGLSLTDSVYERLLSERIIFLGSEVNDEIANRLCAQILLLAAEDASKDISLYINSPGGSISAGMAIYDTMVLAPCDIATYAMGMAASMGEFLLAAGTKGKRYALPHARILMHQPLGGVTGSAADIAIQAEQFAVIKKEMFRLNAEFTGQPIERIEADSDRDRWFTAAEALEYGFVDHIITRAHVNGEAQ
UniProt P9WPC3, whole entry partner: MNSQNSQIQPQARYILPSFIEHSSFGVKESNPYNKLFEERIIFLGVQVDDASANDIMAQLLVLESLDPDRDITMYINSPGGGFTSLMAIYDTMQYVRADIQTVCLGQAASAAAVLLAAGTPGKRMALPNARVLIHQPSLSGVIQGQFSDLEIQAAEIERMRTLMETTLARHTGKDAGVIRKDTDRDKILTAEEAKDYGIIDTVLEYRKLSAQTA
UniProt A4I591, 1-473: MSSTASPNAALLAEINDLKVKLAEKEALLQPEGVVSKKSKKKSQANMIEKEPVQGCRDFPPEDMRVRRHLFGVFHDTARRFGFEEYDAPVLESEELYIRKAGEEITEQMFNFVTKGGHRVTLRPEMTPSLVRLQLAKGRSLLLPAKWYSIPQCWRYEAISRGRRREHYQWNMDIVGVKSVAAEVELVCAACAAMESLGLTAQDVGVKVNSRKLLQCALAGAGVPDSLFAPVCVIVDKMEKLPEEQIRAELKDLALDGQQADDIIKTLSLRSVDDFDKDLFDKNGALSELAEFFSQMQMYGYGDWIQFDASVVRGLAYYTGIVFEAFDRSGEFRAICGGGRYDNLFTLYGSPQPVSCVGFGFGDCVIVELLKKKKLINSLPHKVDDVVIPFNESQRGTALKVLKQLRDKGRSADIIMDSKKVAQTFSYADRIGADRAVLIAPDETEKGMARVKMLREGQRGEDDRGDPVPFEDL
UniProt P9WFT3, whole entry: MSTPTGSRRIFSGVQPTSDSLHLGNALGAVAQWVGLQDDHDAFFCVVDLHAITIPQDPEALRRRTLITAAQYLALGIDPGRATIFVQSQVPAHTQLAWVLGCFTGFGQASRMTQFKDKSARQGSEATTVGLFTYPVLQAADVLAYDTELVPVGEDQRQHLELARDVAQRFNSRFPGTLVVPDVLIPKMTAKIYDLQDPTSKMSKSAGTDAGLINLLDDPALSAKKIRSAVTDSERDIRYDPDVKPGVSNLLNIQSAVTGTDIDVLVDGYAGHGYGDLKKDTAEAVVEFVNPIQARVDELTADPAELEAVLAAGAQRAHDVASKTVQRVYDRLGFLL

Each number is a percent effect as filed. The controls that fix the scale are not given in the record; negative values are as filed. Compounds were drawn at random from those tested, without regard to their results.

A: 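Enzyme assay of CoaBC with a phosphate dye (Biomol Green) read at 650 nm. Target: Coenzyme A biosynthesis protein CoaBC, Mycobacterium tuberculosis (UniProt P9WNZ1). Compounds at 30 µM. Higher reads as stronger inhibition, judged from the few compounds that gave an IC50. Most strong results did not repeat in a second test. About 67,000 compounds were tested under these conditions; 0.06% (about 40) showed 50% or more at least once.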
B: 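Polyketide synthase Pks13, Mycobacterium tuberculosis (UniProt I6X8D2). Enzyme assay of the thioesterase domain of polyketide synthase 13; the read-out is not stated. Concentration: 30 µM. Higher reads as stronger inhibition (inferred from which compounds were picked for retests). Size under these conditions: about 67,000 compounds, about 300 of them at 50% or above in at least one test.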
C: 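Protease assay of ClpP1P2, read by the AMC dye that it sets free. Target: ClpP1P2, Mycobacterium tuberculosis (UniProt P9WPC5 and UniProt P9WPC3). Tested at 50 µM. Higher reads as stronger inhibition, judged from the few compounds that gave an IC50. Most other retested compounds had strongly negative values. Size under these conditions: about 69,000 compounds, about 10 of them at 50% or above in at least one test.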
D: 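Assay of Toxoplasma gondii numbers, read through their beta-galactosidase reporter with a colour substrate. Concentration: 10 µM. Higher reads as fewer parasites (inferred from which compounds were picked for retests). Size under these conditions: about 67,000 compounds, about 260 of them at 50% or above in at least one test.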
E: 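Enzyme assay of histidyl-tRNA synthetase; the read-out is not stated. Target: Histidine-tRNA ligase, Leishmania infantum (UniProt A4I591). Concentration: 30 µM. Higher reads as stronger inhibition (inferred: compounds with an IC50 in retests scored well above the rest). The assay is labelled LdHisRS but filed under L. infantum. Size under these conditions: about 69,000 compounds, about 410 of them at 50% or above in at least one test.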
F: 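Enzyme assay of tryptophanyl-tRNA synthetase; the read-out is not stated. Target: Tryptophan-tRNA ligase, Mycobacterium tuberculosis (UniProt P9WFT3). Concentration: 10 µM. Direction is not recorded; retested compounds ran higher, which suggests that high means inhibition. About 65,000 compounds were tested under these conditions; 0.098% (about 64) showed 50% or more at least once.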

For CNC(=O)NC(=O)CNC(CC(F)(F)F)c1ccc(F)cc1 (stereo unspecified) the result was A: -4.214%; B: 17.83%; C: -4.512%; D: -10.44%; E: -7.937%; F: 9.185%. Result for C[C@@H]1CN(Cc2cc(C3CCCCC3)no2)CC[C@]1(C)O was A: 3.419%; C: -16.56%; D: 6.921%; E: 10.26%; F: -7.352%. NC(=O)N1CCCC(C(=O)N2CCc3c(nc(CC4CC4)[nH]c3=O)C2)C1 (stereo unspecified) read A: 12.47%; B: -15.9%; C: -8.38%; D: 5.664%; E: 10.96%; F: 0.2981%. FC(F)(F)c1ccc(-c2cnc(C3CCCN3)cn2)cc1 (stereo unspecified) gave A: -8.147%; B: -0.3456%; C: -2.557%; E: 13.04%; F: 41.88%. O=C(O)C(F)(F)F.O=C(O)C(F)(F)F.[H][C@@]12COC[C@]1(C(=O)N1CCCO1)CN(Cc1cccnc1)C2 read D: 3.976%. O=C(c1ccco1)N1C[C@H]2CCCN(CC3CC3)[C@H]2C1 gave A: 2.941%; B: -5.513%; C: 2.627%; E: 3.636%; F: 1.744%. Cn1ccc(CN2CCCC23CCN(Cc2nccn2C)CC3)n1 gave A: 1.485%; B: 0.3908%; C: -15.48%; E: 8.108%.

Result for Cc1ncsc1CCN(C)C(=O)CN1CC2(CCCC2)CC1=O was A: 0.9901%; B: -4.178%; C: -4.954%; D: -9.276%; E: 14%; F: -0.06915%. Cc1cc(CN(C)Cc2cc3c(cc2OC(F)F)OCO3)on1 read A: 5.286%; B: -12.19%; C: -6.577%; D: 1.754%; E: 13.21%; F: 2.85%. [H][C@@]12CS(=O)(=O)C[C@]1([H])N(Cc1nc3ccccc3[nH]1)CCN2C(=O)N(C)C read D: -11.52%. With Cc1ccsc1CN(C)c1nc2c(cnn2C(C)(C)C)c(=O)[nH]1 the screen gave A: -7.258%; B: -9.138%; C: 4.984%; D: 19.33%; E: 19.3%; F: -3.995%. COc1cc(C)c(C2CC(=O)NCc3nc4sccn4c32)cc1C (stereo unspecified) read A: 2.112%; B: 8.789%; C: -22.39%; D: 2.919%; E: 4.167%; F: -2.315%. Result for CN(CC1CCCN1C)c1nccc(C2CCCC2)n1 (stereo unspecified) was A: 6.397%; B: -8.61%; C: 16.24%; D: 17.06%; E: 11.7%; F: 2.968%. [H][C@]12CN(C(=O)CC3CC3)C[C@@]1([H])C(=O)N(c1ccccc1)C2 gave D: -8.691%.

Once more, the final 2:

For CN(CC1CCCN1C)c1nccc(C2CCCC2)n1 (stereo unspecified) the result was A: 6.397%; B: -8.61%; C: 16.24%; D: 17.06%; E: 11.7%; F: 2.968%.
For [H][C@]12CN(C(=O)CC3CC3)C[C@@]1([H])C(=O)N(c1ccccc1)C2 the result was D: -8.691%.

Measurements from “University of Dundee, Small-Polar-MMV Screening Library” (2021), ChEMBL document CHEMBL3988442.